Assay results reported in patent US20050221196A1, “Redox shuttle for rechargeable lithium-ion cell” (priority 2004, published 2005).

How the values were obtained:
[1] = Extended shuttle-protected overcharge cycling, LiFePO4/graphite cell, 100% overcharge each cycle
Method: Further testing was carried out to evaluate currents up to 1/3 of Imax in extended shuttle-protected overcharge tests. […] The shuttle plateau is near 3.9 V because the graphite electrode is near 0 V vs Li/Li^+ when the Li-ion coin cell is fully charged. The charging current was 0.55 mA, which corresponds to about a C/2-rate for the electrodes of this cell. The shuttle continues to perform well after 200 charge discharge cycles. […] In this case, the shuttle was able to protect against overcharge for about 190 cycles, followed by disappearance of the shuttle effect over the next few cycles. […] The loss of shuttle effect at high C rates may have been due to the Li4/3Ti5/3O4 negative electrode dropping below its plateau potential (1.55 V) before reaching the fully discharged state.

[2] = Shuttle molecules tested in LiFePO4/graphite and LiFePO4/Li4/3Ti5/3O4 coin cells, C/10, 100% overcharge; conditions: tested until the shuttle ceased to function
Method: A variety of shuttle molecules (obtained from Aldrich Chemical Co. and used without further purification) were tested in LiFePO4/graphite and LiFePO4/Li4/3Ti5/3O4 coin cells. The LiFePO4 was obtained from Phostech Lithium as in Example 1 and the Li4/3Ti5/3O4 was obtained from NEI Corp. (Piscataway, N.J., USA). The graphite used was mesocarbon microbeads (MCMB) heat treated to near 2650° C. Electrodes were made from the active materials 10% by weight Super S carbon black (MMM Carbon, Belgium) and 10% by weight PVDF binder. LiFePO4 and Li4/3Ti5/3O4 electrodes were coated on aluminum foil and MCMB electrodes were coated on copper foil. […] The electrolyte was 0.7 M LiBOB in a 1:2:1:2 by volume mixture of PC:DMC:EC:DEC. The shuttle molecule was added in a concentration of 0.1M. Coin cells were charged using currents corresponding to a normal recharge in 10 hours (C/10) to 200% of their normal charge capacity (100% overcharge) or until a specified upper cut-off potential (normally 4.9V versus Li/Li^+) was reached, which ever occurred first and tested until the shuttle ceased to function. Four shuttles were employed, namely 1,3,5-tri-t-butyl-2-methoxybenzene (Example 9), 5-t-butyl-1,3-dinitro-2-methoxybenzene (Example 10), 2-t-butyl-4,6-dinitro-5-methylanisole (Example 11) and 4-t-butyl-2,6-diaminoanisole (Comparison Example 10). The coin cell test results are set out below in Table 2: […]

COc1cc(C(C)(C)C)c(OC)cc1C(C)(C)C [2,5-di-tert-butyl-1,4-dimethoxybenzene]
charge discharge cycles after which shuttle continues to perform well ([1]; 0.55 mA charging current, about C/2-rate): ≥ 200 cycles
cycles of protection against overcharge ([1]; 1.1 mA charging current, about C-rate): about 190 cycles

COc1c(N)cc(C(C)(C)C)cc1N [Comp. Ex. 5, 4-t-butyl-2,6-diaminoanisole, reference compound]
Cycles [2]: 0

COc1c(C(C)(C)C)cc(C(C)(C)C)cc1C(C)(C)C [Example 9, 1,3,5-tri-t-butyl-2-methoxybenzene]
Cycles [2]: 3

COc1c([N+](=O)[O-])cc(C(C)(C)C)cc1[N+](=O)[O-] [Example 10, 5-t-butyl-1,3-dinitro-2-methoxybenzene]
Cycles [2]: 2

COc1c(C(C)(C)C)cc([N+](=O)[O-])c(C)c1[N+](=O)[O-] [Example 11, 2-t-butyl-4,6-dinitro-5-methylanisole]
Cycles [2]: 2
